Results from paper doi:10.1101/2022.09.21.508831.

How the values were obtained:
[1] = molecular target: native PfRAP070 (Plasmodium falciparum 3D7 (endogenous in merozoites)) (UniProt Q8IAY8); assay: native gel or EMSA
[2] = molecular target: native PfRAP291 (Plasmodium falciparum 3D7 (endogenous in merozoites)) (UniProt Q8IJA7); assay: native gel or EMSA

B1: RhopH3 (endogenous, merozoite) (protein, UniProt Q8I395 25-897)
chain: KDVFAGFVTKKLKTLLDCNFALYYNFKGNGPDAGSFLDFVDEPEQFYWFVEHFLSVKFRVPKHLKDKNIHNFTPCLNRSWVSEFLKEYEEPFVNPVMKFLDKEQRLFFTYNFGDVEPQGKYTYFPVKEFHKYCILPPLIKTNIKDGESGEFLKYQLNKEEYKVFLSSVGSQMTAIKNLYSTVEDEQRKQLLKVIIENESTNDISVQCPTYNIKLHYTKECANSNNILKCIDEFLRKTCEKKTESKHPSADLCEHLQFLFESLKNPYLDNFKKFMTNSDFTLIKPQSVWNVPIFDIYKPKNYLDSVQNLDTECFKKLNSKNLIFLSFHDDIPNNPYYNVELQEIVKLSTYTYSIFDKLYNFFFVFKKSGAPISPVSVKELSHNITDFSFKEDNSEIQCQNVRKSLDLEVDVETMKGIAAEKLCKIIEKFILTKDDASKPEKSDIHRGFRILCILISTHVEAYNIVRQLLNMESMISLTRYTSLYIHKFFKSVTLLKGNFLYKNNKAIRYSRACSKASLHVPSVLYRRNIYIPETFLSLYLGLSNLVSSNPSSPFFEYAIIEFLVTYYNKGSEKFVLYFISIISVLYINEYYYEQLSCFYPKEFELIKSRMIHPNIVDRILKGIDNLMKSTRYDKMRTMYLDFESSDIFSREKVFTALYNFDSFIKTNEQLKKKNLEEISEIPVQLETSNDGIGYRKQDVLYETDKPQTMDEASYEETVDEDAHHVNEKQHSAHFLDAIAEKDILEEKTKDQDLEIELYKYMGPLKEQSKSTSAASTSDEISGSEGPSTESTSTGNQGEDKTTDNTYKEMEELEEAEGTSNLKKGLEFYKSSLKLDQLDKEKPKKKKSKRKKKRDSSSDRILLEESKTFTSENEL
- binding [1]: binds
- binding [2]: binds

These are yes or no findings as the source states them, for the method shown. Binding can be weak; no strength is given.
